PubChem BioAssay AID1508588, Peter MacCallum Cancer Centre | 2020

Test: 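Which gene losses make BRAF-mutant melanoma cells more responsive to vemurafenib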 (primary screen)
Cells: human WM266.4 melanoma cells (BRAF V600 mutant)
Knock-down reagent: siRNA pool against human genes, 40 nM
Time to read-out: 96 h from transfection to read-out
Conditions: vemurafenib 300 nM (about IC25), added 48 h after transfection, for 48 h; comparison arm got DMSO vehicle only
Detection: 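Ratios to non-targeting siRNA for cell gain, counted as DAPI nuclei after minus before drug and averaged over two replicates, and for absorbance-read medium lactate per cell; both binned into fold-change classes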
Scale: cell gain with vemurafenib: higher = more cell gain than with non-targeting siRNA; lactate per cell with vemurafenib: higher = more lactate made per cell
Active means: 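a knock-down counts as enhancing when its fold-change classes with vehicle and with vemurafenib, taken together, show a stronger drug effect on cell gain or lactate per cell; exact class pairs not stated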
Meaning of the calls: active = enhances vemurafenib effect; inactive = no enhancement seen
Shown is a random part of about 18,000 reagents. 790 of them (4.4%) count as active. 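Calls rest on a combination of fold-change classes in drug and vehicle arms, not all shown here.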

target gene	cell gain with vemurafenib	lactate per cell with vemurafenib	activity call
SON	0	2.38	inactive
TRIM48	0.72	1.27	inactive
PCDHB1	0.68	0.96	inactive
CERS1	0.62	0.8	inactive
G0S2	0.68	0.69	inactive
SAMD3	0.58	1.46	inactive
NPIPB7	0.62	0.46	active
CACNB4	0.77	0.34	inactive
ABCF3	0.43	0.56	inactive
ADD2	0.58	1.66	inactive
CPB1	0.01	1.01	inactive
KRTAP26-1	0.47	1.77	inactive
MMP12	0.42	1.55	inactive
ODF2L	0.85	1.15	inactive
FHL5	0.64	0.67	inactive
PAMR1	0.48	1.46	inactive
AFTPH	0.63	0.7	inactive
GNPDA1	1.02	0.77	inactive
GNRHR	1.15	0.7	inactive
COX6B2	0.75	1.4	inactive
SYCP2L	0.66	0.68	inactive
DYNLT4	0.91	1.17	inactive
DALRD3	0.79	1.08	inactive
EEF1AKMT3	0.39	1.41	inactive
WBP4	0.75	0.86	inactive
MBD3L1	0.64	1.5	inactive
GPR158	0.09	0.48	active
ARHGAP12	0.65	1.7	inactive
OTOP1	0.4	1.1	inactive
LRIT2	0.63	1.12	inactive
CCDC68	0.96	0.99	inactive
CSHL1	0.17	3.46	inactive
VGLL4	0.34	0.94	inactive
HSP90AA1	0.36	1.17	inactive
ITPRIPL1	0.57	0.99	inactive
DCST2	0.67	0.76	inactive
LAPTM4B	0.8	0.84	inactive
PRLR	0.67	0.94	inactive
RNF145	1.09	0.88	inactive
USP49	0.29	2.37	inactive
SELENOH	0.59	1.36	inactive
SSH3	0.74	0.73	inactive
CA5B	0.7	0.26	inactive
SERGEF	0.57	0.64	inactive
ADGRF5	0.78	0.74	inactive
BCAS4	0.84	0.32	inactive
LYPLA2	0.58	1.22	inactive
PAK4	0.63	0.65	inactive
TMEM38A	0.65	0.74	inactive
OR7E85BP	0.27	0.82	inactive
PTPN4	0.83	0.48	inactive
RNASE2	1.04	1.23	inactive
ZCCHC3	0.69	1.03	inactive
DGKE	0.79	0.86	inactive
ZBTB21	0.54	2.12	inactive
KRT18P55	0.26	1.19	inactive
TNC	-0.1	2.02	inactive

Not a retest: entries from further up.
target gene	cell gain with vemurafenib	lactate per cell with vemurafenib	activity call
AFTPH	0.63	0.7	inactive
GNPDA1	1.02	0.77	inactive
GNRHR	1.15	0.7	inactive
COX6B2	0.75	1.4	inactive
SYCP2L	0.66	0.68	inactive
DYNLT4	0.91	1.17	inactive
DALRD3	0.79	1.08	inactive
EEF1AKMT3	0.39	1.41	inactive
